In US12698289B2, “Solid forms of pharmaceutically acceptable salts of (S)-(2-ethyl-5-fluoro-4-hydroxyphenyl)-1H-indazol-3-yl)-4,6-dihydropyrrolo[3,4-d]imidazol-5(1H)-yl)(3-hydroxypyrrolidin-1-yl)methanone as JAK inhibitors” (HENAN MEDINNO PHARMACEUTICAL TECHNOLOGY CO., LTD., priority 2019, dated 2026):

Test system: human T cells
Experiment: IL-2 induced human T cell proliferation assay (Celltiter Glo)
Conditions: HT, 72 h, read-out: IC50 (nM), human T cell proliferation

C[C@@H]1CCN(C(=O)CC#N)C[C@@H]1N(C)c1ncnc2[nH]ccc12 [Tofacitinib]
IC50: 21.7 nM
